The values below come from publication doi:10.1101/739318.

The chains behind the UniProt entries cited, without tags or fusion partners. Where a name states a change or a piece, a line headed by the entry shows the natural chain unless it says otherwise. A line that says so, or that is headed by a name, gives the form on record, which may keep a tag or linker. Residues count along the entry.
fibrin(ogen) α-chain in the fibrin clot (P02671, form named): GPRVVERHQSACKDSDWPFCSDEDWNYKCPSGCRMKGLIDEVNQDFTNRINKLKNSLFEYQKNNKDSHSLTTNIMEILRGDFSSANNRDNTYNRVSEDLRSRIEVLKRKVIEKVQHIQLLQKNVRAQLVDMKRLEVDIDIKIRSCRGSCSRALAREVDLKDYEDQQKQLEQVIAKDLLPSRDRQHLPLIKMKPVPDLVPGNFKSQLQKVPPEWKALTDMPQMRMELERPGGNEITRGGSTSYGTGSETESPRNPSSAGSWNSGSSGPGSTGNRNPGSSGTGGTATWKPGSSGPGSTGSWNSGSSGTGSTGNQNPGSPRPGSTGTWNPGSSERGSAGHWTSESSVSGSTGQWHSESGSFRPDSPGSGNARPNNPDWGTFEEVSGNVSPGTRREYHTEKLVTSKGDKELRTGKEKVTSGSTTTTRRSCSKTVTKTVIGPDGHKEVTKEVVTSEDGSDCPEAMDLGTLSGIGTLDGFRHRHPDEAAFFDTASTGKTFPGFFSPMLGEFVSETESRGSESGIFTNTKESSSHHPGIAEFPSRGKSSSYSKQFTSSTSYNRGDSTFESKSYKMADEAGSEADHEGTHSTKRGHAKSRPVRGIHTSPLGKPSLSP
UniProt P02675, residues 45-491: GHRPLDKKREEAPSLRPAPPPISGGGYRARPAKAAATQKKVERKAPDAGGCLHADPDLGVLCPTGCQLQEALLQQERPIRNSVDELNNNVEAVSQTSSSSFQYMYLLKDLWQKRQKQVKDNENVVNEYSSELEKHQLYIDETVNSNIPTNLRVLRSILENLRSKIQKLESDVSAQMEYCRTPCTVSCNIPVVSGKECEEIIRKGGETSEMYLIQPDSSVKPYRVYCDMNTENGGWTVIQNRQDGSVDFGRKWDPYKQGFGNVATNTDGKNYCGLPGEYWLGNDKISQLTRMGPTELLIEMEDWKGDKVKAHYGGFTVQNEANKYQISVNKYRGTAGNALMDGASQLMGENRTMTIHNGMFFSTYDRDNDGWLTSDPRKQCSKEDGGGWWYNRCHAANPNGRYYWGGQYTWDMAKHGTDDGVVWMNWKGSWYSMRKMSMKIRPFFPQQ
UniProt P02768, residues 25-609: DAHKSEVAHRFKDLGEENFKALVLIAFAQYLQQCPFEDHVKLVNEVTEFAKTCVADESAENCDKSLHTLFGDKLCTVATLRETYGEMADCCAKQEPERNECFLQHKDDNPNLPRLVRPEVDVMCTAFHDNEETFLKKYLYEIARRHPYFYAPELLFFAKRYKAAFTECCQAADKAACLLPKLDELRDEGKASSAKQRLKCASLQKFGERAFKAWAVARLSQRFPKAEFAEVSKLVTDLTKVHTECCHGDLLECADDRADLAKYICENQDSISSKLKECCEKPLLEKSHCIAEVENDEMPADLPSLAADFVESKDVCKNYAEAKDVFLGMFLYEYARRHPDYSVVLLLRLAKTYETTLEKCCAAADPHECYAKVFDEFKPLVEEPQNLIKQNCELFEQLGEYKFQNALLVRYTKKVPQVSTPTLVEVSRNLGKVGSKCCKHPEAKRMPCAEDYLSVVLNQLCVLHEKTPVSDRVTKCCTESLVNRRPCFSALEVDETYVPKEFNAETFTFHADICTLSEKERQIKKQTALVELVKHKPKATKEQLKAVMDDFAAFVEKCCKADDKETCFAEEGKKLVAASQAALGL
fibrin(ogen) γ-chain in the fibrin clot (P02679-2, form named): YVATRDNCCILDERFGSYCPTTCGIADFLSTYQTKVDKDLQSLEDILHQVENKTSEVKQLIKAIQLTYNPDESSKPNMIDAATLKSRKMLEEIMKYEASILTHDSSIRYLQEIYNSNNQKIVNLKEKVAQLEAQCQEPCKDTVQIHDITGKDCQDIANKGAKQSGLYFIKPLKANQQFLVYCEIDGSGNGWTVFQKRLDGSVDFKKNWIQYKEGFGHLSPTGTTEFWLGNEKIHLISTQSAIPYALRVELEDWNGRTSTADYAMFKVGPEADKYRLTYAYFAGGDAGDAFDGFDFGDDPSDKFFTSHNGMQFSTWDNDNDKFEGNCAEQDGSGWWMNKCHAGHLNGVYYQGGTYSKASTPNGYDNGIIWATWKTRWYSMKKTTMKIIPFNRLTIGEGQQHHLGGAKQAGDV

For assay [1], the target named is fibrin(ogen) α-chain in the fibrin clot (human) (UniProt P02671). Description: cross-linking.
Assay [2] concerns the target fibrin(ogen) β-chain in the fibrin clot (human) (UniProt P02675). Description: cross-linking.

Results are given in words; binding and its absence hold for the method and conditions named. In cells and extracts the contact can be indirect. Some entries that bind do so weakly or less than the wild type.

As to “fibrin(ogen) β-chain in the fibrin clot (from UniProt P02675 45-491)”, the binding entry in assay [1] was “binds”.

Take “Human Serum Albumin (from UniProt P02768 25-609)”: the binding entry in assay [1] and in assay [2] was “binds” throughout.

With “fibrin(ogen) γ-chain in the fibrin clot (from UniProt P02679-2 27-437)”, the binding result in assay [1] and in assay [2] was “binds” in each case.
